Experimental data: PMC5988292
Results are given in words; binding and its absence hold for the method and conditions named. Binding calls can cover weak binding; strength is not graded here.

Amino acid sequences for entries named in this document (tags omitted). Residues count along the entry.
UniProt P61586, residues 1-181: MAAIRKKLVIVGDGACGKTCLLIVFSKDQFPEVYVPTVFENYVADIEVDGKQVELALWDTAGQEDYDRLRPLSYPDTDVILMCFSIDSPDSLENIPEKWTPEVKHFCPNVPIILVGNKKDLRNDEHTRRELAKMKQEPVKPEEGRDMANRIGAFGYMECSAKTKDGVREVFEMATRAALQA

Biological target: RhoA (residues 1-181) bound to GTPγS (UniProt P61586)
Assay: crystal structure; p114-PH·RhoA·GTPγS complex; vapor diffusion at 20 °C; 22–24% PEG 3350, 100 mM Bis-Tris pH 5.8–6.1, 200 mM ammonium sulfate; 1.4 Å; both purified

binding: binds
Substance: PH domain from mouse p114RhoGEF (residues 302-444) (from UniProt Q6P9R4-1) (domain or fragment)
